{
  "sequences": {"note": "By UniProt entry, the sequences of proteins in these tests, tags left out. Where a name states a change or a piece, a line headed by the entry shows the natural chain unless it says otherwise.", "UniProt Q92754": "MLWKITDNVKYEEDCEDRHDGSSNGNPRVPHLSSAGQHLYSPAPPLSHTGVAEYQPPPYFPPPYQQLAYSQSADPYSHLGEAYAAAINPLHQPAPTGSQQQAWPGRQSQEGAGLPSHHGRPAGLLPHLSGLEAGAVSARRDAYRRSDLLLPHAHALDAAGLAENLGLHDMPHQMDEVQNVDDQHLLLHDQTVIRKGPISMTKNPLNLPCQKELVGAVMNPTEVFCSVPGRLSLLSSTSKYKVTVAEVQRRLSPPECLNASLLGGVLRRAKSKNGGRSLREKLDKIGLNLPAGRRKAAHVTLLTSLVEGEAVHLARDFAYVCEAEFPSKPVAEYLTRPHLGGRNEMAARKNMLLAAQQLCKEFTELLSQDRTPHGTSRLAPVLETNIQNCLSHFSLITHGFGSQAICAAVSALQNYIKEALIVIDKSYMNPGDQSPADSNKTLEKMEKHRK", "UniProt Q92692, whole entry": "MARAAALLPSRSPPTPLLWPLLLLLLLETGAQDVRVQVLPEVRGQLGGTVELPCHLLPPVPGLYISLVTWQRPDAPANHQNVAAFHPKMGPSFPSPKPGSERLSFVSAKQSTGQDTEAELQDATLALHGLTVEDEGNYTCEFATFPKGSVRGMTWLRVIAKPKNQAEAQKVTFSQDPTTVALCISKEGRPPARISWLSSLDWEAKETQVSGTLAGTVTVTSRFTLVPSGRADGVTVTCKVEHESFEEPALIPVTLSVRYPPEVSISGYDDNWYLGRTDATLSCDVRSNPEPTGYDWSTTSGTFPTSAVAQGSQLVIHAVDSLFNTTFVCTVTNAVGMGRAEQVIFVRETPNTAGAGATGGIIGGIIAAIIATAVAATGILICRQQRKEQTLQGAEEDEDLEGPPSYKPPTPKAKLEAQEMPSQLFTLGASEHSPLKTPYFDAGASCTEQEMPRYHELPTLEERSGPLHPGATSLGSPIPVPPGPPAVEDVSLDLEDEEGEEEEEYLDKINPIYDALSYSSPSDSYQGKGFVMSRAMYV", "UniProt Q969P0": "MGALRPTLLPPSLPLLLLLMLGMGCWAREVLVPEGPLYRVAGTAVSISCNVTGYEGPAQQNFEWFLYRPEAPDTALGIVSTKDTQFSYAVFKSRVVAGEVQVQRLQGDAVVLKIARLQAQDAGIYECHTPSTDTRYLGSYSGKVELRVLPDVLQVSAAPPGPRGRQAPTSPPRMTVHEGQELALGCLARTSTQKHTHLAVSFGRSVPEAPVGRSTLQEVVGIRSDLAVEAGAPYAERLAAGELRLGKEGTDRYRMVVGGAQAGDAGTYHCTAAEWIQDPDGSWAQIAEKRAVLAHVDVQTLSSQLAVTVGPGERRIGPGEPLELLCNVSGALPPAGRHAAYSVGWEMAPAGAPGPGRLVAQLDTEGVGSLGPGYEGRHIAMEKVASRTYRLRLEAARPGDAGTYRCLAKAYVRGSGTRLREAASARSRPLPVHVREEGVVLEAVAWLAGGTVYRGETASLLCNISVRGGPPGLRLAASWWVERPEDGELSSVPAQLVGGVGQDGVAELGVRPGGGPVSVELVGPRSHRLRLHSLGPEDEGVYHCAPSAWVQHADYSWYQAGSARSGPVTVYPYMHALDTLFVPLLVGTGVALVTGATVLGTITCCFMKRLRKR", "UniProt Q96D31, whole entry, looked up": "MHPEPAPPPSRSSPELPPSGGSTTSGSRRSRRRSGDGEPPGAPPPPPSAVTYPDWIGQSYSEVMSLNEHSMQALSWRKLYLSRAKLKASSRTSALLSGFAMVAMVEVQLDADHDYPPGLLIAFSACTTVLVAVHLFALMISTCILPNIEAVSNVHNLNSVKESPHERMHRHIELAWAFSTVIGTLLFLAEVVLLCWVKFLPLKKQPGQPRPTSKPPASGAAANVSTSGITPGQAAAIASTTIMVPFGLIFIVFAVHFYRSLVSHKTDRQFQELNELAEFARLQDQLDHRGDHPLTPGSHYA", "UniProt Q96CM3": "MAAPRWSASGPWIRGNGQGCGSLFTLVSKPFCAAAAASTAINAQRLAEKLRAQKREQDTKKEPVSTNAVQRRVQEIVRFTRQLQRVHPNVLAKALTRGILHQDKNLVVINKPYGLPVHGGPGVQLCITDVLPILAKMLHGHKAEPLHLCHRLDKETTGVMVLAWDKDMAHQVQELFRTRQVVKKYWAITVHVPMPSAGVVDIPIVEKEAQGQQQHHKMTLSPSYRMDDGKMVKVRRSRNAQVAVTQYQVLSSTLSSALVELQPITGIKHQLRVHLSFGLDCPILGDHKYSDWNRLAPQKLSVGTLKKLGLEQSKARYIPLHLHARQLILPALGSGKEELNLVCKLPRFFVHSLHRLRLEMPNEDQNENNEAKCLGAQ", "UniProt Q96AG3": "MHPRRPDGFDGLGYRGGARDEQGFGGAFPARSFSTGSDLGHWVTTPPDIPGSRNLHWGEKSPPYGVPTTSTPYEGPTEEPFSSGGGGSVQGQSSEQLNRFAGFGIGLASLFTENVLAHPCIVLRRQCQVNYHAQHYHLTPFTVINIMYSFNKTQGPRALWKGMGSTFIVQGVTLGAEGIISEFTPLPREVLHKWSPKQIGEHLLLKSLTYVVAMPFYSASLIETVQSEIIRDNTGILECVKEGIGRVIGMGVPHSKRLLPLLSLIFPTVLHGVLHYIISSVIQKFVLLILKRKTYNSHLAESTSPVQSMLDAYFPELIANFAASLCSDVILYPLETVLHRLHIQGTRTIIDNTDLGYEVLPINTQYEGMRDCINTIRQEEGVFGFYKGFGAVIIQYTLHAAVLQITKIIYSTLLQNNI", "UniProt Q92879": "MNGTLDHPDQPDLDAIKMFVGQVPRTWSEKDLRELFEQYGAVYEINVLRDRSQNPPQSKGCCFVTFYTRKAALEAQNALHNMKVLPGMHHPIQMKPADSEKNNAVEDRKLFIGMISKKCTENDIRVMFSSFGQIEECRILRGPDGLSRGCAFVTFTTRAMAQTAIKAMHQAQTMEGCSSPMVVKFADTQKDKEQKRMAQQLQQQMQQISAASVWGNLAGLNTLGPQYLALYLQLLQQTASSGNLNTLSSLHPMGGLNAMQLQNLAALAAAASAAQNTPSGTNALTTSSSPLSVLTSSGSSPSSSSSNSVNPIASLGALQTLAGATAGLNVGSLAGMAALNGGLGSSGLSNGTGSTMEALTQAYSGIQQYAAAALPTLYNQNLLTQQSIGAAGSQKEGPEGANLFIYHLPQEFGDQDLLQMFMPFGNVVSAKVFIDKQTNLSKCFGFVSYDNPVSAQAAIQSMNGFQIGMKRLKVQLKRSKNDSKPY", "UniProt Q92551": "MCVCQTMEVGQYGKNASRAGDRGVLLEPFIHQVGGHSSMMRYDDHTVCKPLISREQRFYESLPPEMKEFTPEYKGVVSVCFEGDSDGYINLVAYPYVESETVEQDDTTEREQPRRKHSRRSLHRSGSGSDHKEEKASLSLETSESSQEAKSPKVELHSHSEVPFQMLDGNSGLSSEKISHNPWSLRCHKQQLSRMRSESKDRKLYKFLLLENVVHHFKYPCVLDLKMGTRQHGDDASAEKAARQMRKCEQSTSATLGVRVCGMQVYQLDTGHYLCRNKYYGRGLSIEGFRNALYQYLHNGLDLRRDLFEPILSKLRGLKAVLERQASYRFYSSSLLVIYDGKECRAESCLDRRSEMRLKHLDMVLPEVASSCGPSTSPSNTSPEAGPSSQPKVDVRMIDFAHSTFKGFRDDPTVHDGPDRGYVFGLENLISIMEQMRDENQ", "UniProt Q92615, whole entry": "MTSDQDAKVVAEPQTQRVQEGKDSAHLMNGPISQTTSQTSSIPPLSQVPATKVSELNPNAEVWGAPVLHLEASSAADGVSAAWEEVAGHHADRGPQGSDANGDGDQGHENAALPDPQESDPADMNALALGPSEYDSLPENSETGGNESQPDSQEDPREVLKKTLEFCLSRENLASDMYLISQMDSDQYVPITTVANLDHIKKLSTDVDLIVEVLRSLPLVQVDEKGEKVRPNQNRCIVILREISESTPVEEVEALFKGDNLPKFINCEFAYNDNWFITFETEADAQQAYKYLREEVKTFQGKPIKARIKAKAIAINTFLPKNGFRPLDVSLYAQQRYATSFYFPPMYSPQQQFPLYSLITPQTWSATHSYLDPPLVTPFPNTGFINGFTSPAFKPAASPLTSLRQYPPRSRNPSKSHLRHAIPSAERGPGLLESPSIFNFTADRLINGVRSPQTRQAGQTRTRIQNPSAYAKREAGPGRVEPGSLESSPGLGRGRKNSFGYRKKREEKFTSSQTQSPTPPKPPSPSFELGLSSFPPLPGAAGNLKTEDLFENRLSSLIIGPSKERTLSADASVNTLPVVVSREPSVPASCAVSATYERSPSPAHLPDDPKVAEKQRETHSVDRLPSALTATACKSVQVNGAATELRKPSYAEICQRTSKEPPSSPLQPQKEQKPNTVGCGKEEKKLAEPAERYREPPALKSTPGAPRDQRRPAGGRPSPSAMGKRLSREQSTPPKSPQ", "UniProt Q96DA6": "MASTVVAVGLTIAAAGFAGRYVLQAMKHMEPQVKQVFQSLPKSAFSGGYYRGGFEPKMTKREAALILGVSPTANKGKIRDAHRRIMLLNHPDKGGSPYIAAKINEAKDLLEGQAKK", "UniProt Q92611": "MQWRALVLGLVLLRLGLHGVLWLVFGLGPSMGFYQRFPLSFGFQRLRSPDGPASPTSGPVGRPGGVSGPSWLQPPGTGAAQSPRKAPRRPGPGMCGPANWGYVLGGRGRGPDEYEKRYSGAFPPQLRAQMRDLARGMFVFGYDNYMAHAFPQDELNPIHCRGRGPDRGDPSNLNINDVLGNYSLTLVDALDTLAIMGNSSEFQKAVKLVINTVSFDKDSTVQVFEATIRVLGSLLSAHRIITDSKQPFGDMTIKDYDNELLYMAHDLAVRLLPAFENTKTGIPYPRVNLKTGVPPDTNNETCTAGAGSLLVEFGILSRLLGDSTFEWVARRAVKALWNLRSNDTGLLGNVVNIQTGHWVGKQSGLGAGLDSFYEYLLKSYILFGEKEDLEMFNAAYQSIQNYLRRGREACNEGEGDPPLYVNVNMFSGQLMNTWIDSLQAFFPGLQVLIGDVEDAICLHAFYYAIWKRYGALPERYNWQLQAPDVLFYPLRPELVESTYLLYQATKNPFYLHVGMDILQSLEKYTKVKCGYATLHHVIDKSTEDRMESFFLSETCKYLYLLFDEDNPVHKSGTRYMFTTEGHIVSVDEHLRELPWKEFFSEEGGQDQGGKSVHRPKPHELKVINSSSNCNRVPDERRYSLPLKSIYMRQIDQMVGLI", "UniProt Q96BS2": "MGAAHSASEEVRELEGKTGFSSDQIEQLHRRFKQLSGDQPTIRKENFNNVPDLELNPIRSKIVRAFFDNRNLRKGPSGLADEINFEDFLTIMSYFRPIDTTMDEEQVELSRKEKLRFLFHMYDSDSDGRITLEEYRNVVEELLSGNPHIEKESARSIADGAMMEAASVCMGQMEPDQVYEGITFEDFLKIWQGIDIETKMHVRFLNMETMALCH", "UniProt Q96CM8": "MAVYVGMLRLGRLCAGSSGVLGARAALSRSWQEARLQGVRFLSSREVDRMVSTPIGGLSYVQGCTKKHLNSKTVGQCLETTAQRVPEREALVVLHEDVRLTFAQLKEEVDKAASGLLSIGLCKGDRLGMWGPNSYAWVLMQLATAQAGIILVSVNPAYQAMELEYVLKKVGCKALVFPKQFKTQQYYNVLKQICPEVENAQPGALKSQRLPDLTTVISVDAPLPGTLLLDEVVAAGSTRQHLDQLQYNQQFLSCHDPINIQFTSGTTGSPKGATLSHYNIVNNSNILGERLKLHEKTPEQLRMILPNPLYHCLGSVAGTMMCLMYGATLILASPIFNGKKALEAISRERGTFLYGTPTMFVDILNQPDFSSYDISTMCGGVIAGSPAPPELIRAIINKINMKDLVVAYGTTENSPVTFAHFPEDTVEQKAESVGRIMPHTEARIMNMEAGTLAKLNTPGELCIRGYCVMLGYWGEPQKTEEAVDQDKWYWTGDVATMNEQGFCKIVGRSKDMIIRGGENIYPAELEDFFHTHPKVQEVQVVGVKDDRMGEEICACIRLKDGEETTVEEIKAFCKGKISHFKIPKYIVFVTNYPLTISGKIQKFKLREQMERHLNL", "UniProt Q92575": "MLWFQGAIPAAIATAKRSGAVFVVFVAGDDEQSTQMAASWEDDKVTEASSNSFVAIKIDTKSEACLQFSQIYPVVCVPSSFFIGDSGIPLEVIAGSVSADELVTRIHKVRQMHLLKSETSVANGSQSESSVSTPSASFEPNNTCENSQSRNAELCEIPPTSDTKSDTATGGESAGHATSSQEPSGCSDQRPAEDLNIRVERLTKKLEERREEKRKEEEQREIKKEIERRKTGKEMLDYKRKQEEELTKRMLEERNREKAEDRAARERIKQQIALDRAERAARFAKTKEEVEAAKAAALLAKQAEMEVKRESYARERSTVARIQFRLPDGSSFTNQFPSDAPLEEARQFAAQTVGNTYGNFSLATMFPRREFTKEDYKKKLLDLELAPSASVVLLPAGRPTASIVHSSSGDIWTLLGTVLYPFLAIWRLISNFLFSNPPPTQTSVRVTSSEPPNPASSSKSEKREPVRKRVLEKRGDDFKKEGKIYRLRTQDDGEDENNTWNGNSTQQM"},
  "source": "the supplement of paper PMC12595434",
  "about": "“Development of retinoid nuclear receptor pathway antagonists through targeting aldehyde dehydrogenase 1A3” (iScience, 2025)",
  "note": "This is one part of the list. This is a noisy data set.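 Many melting curves are irregular; where none melted, Tm was taken as 64 °C.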",
  "data": [
    {"compound": "CCc1cnccc1C(=O)Nc1cc2c(cc1F)NC(=O)CC2", "assay": "melting temperature shift (DMSO Tm minus MBE1-treated Tm) in cellular thermal proteome profiling; higher = less thermal stabilization by MBE1 (negative = stabilized by MBE1)", "details": "A375; MBE1 concentration: 100 nM", "units": {"melting temperature shift": "°C"}, "values": [
      {"target": "UFD1L (UniProt Q92890)", "melting temperature shift": -0.724},
      {"target": "UniProt Q92754", "melting temperature shift": 1.65},
      {"target": "NECTIN2 (UniProt Q92692)", "melting temperature shift": -1.94},
      {"target": "DGCR14 (UniProt Q96DF8)", "melting temperature shift": 0.177},
      {"target": "UniProt Q8WWQ0", "melting temperature shift": -0.168},
      {"target": "IGSF8 (UniProt Q969P0)", "melting temperature shift": -2.4},
      {"target": "UniProt Q96D31", "melting temperature shift": -5.2},
      {"target": "SYAP1 (UniProt Q96A49)", "melting temperature shift": -0.61},
      {"target": "MRPL24 (UniProt Q96A35)", "melting temperature shift": 0.696},
      {"target": "MADD (UniProt Q8WXG6)", "melting temperature shift": -0.0659},
      {"target": "UPRT (UniProt Q96BW1)", "melting temperature shift": -0.161},
      {"target": "CCDC47 (UniProt Q96A33)", "melting temperature shift": -0.503},
      {"target": "UniProt Q96BT7", "melting temperature shift": 0.438},
      {"target": "RPUSD4 (UniProt Q96CM3)", "melting temperature shift": -2.97},
      {"target": "MSI2 (UniProt Q96DH6)", "melting temperature shift": 1.03},
      {"target": "UniProt Q92828", "melting temperature shift": 0.824},
      {"target": "SLC25A46 (UniProt Q96AG3)", "melting temperature shift": -0.449},
      {"target": "UniProt Q92771", "melting temperature shift": -0.969},
      {"target": "MUL1 (UniProt Q969V5)", "melting temperature shift": 0.659},
      {"target": "GCDH (UniProt Q92947)", "melting temperature shift": -1.34},
      {"target": "ARHGEF2 (UniProt Q92974)", "melting temperature shift": -0.88},
      {"target": "PIGK (UniProt Q92643)", "melting temperature shift": -0.577},
      {"target": "PXDN (UniProt Q92626)", "melting temperature shift": -2.88},
      {"target": "CELF1 (UniProt Q92879)", "melting temperature shift": -1.05},
      {"target": "NMD3 (UniProt Q96D46)", "melting temperature shift": -0.785},
      {"target": "ERLEC1 (UniProt Q96DZ1)", "melting temperature shift": -1.27},
      {"target": "IP6K1 (UniProt Q92551)", "melting temperature shift": -0.992},
      {"target": "LARP4B (UniProt Q92615)", "melting temperature shift": 0.299},
      {"target": "NSUN4 (UniProt Q96CB9)", "melting temperature shift": 0.114},
      {"target": "DNAJC19 (UniProt Q96DA6)", "melting temperature shift": -0.61},
      {"target": "ATP6V0A1 (UniProt Q93050)", "melting temperature shift": -2.07},
      {"target": "EDEM1 (UniProt Q92611)", "melting temperature shift": 0.657},
      {"target": "TESC (UniProt Q96BS2)", "melting temperature shift": 1.37},
      {"target": "ACSF2 (UniProt Q96CM8)", "melting temperature shift": 0.214},
      {"target": "UBXN4 (UniProt Q92575)", "melting temperature shift": -0.0122},
      {"target": "SMARCD2 (UniProt Q92925)", "melting temperature shift": -0.275},
      {"target": "WBP2 (UniProt Q969T9)", "melting temperature shift": -0.858}
    ]},
    {"compound": "CCc1cnccc1C(=O)Nc1cc2c(cc1F)NC(=O)CC2", "assay": "melting temperature shift (DMSO Tm minus MBE1-treated Tm) in cellular thermal proteome profiling; higher = less thermal stabilization by MBE1 (negative = stabilized by MBE1)", "details": "A375; MBE1 concentration: 1 uM", "units": {"melting temperature shift": "°C"}, "values": [
      {"target": "UFD1L (UniProt Q92890)", "melting temperature shift": 0.595},
      {"target": "UniProt Q92754", "melting temperature shift": -0.702},
      {"target": "NECTIN2 (UniProt Q92692)", "melting temperature shift": -1.79},
      {"target": "DGCR14 (UniProt Q96DF8)", "melting temperature shift": -2.08},
      {"target": "UniProt Q8WWQ0", "melting temperature shift": -2.04},
      {"target": "IGSF8 (UniProt Q969P0)", "melting temperature shift": -2.94},
      {"target": "UniProt Q96D31", "melting temperature shift": -1.3},
      {"target": "SYAP1 (UniProt Q96A49)", "melting temperature shift": 0.161},
      {"target": "MRPL24 (UniProt Q96A35)", "melting temperature shift": -0.983},
      {"target": "MADD (UniProt Q8WXG6)", "melting temperature shift": -0.00941},
      {"target": "UPRT (UniProt Q96BW1)", "melting temperature shift": 0.543},
      {"target": "CCDC47 (UniProt Q96A33)", "melting temperature shift": 0.201},
      {"target": "UniProt Q96BT7", "melting temperature shift": 0.328},
      {"target": "RPUSD4 (UniProt Q96CM3)", "melting temperature shift": 0.852},
      {"target": "MSI2 (UniProt Q96DH6)", "melting temperature shift": 0.0977},
      {"target": "UniProt Q92828", "melting temperature shift": 0.519},
      {"target": "SLC25A46 (UniProt Q96AG3)", "melting temperature shift": 0.385},
      {"target": "UniProt Q92771", "melting temperature shift": -0.536},
      {"target": "MUL1 (UniProt Q969V5)", "melting temperature shift": 1.65},
      {"target": "GCDH (UniProt Q92947)", "melting temperature shift": 0},
      {"target": "ARHGEF2 (UniProt Q92974)", "melting temperature shift": -0.372},
      {"target": "PIGK (UniProt Q92643)", "melting temperature shift": 0.357},
      {"target": "PXDN (UniProt Q92626)", "melting temperature shift": -3.14},
      {"target": "CELF1 (UniProt Q92879)", "melting temperature shift": -0.349},
      {"target": "NMD3 (UniProt Q96D46)", "melting temperature shift": 0.852},
      {"target": "ERLEC1 (UniProt Q96DZ1)", "melting temperature shift": 0.598},
      {"target": "IP6K1 (UniProt Q92551)", "melting temperature shift": 0.287},
      {"target": "LARP4B (UniProt Q92615)", "melting temperature shift": 0.0122},
      {"target": "NSUN4 (UniProt Q96CB9)", "melting temperature shift": 0.366},
      {"target": "DNAJC19 (UniProt Q96DA6)", "melting temperature shift": 0.463},
      {"target": "ATP6V0A1 (UniProt Q93050)", "melting temperature shift": -2.17},
      {"target": "EDEM1 (UniProt Q92611)", "melting temperature shift": 0.41},
      {"target": "TESC (UniProt Q96BS2)", "melting temperature shift": 0.464},
      {"target": "ACSF2 (UniProt Q96CM8)", "melting temperature shift": 0.977},
      {"target": "UBXN4 (UniProt Q92575)", "melting temperature shift": 0.623},
      {"target": "SMARCD2 (UniProt Q92925)", "melting temperature shift": -0.0833},
      {"target": "WBP2 (UniProt Q969T9)", "melting temperature shift": 0.382}
    ]}
  ]
}
